Experimental data from patent US20170189504A1, “NOVEL PEPTIDES AND COMBINATION OF PEPTIDES FOR USE IN IMMUNOTHERAPY AGAINST VARIOUS CANCERS” (immatics biotechnologies GmbH, priority 2015, published 2017).
For part of these data: Expression grades refer to the transcript from which the peptide derives; gene names, where given, were looked up from the sequence.

Experiments:
[1] = test system: source genes (mRNA); assay: Gene and exon expression of source genes, TCGA tumor samples compared with normal tissue samples (Lonsdale, 2013) (Table 17); design: species or system human; conditions: for Over-expression category of source gene (target coverage), LAML: LAML = Acute Myeloid Leukemia (N = 173); for Over-expression category of source gene (target coverage), BLCA: BLCA = Bladder urothelial carcinoma (N = 408); for Over-expression category of source gene (target coverage), BRCA: BRCA = Breast cancer (N = 1104), tumors more than 2-fold above highest 75% percentile of normal tissues; for Over-expression category of source gene (target coverage), CHOL: CHOL = Cholangiocarcinoma (N = 36); for Over-expression category of source gene (target coverage), COAD: COAD = Colon and rectal adenocarcinoma (N = 462); for Over-expression category of source gene (target coverage), ESCA: ESCA = Esophageal cancer (N = 185); for Over-expression category of source gene (target coverage), KICH: KICH = Kidney chromophobe (N = 66); for Over-expression category of source gene (target coverage), KIRC: KIRC = Clear cell kidney carcinoma (N = 534); for Over-expression category of source gene (target coverage), KIRP: KIRP = Papillary kidney carcinoma (N = 291); for Over-expression category of source gene (target coverage), LGG: LGG = Lower grade glioma (N = 534); for Over-expression category of source gene (target coverage), LUAD: LUAD = Lung adenocarcinoma (N = 517); for Over-expression category of source gene (target coverage), LUSC: LUSC = Lung squamous cell carcinoma (N = 503); for Over-expression category of source gene (target coverage), OV: OV = Ovarian serous cystadenocarcinoma (N = 309); for Over-expression category of source gene (target coverage), PAAD: PAAD = Pancreatic ductal adenocarcinoma (N = 179); for Over-expression category of source gene (target coverage), READ: READ = Colon and rectal adenocarcinoma (N = 167); for Over-expression category of source gene (target coverage), SKCM: SKCM = Skin cutaneous melanoma (N = 473); for Over-expression category of source gene (target coverage), STAD: STAD = Stomach adenocarcinoma (N = 415)
[2] = test system: HLA-A*24; assay: Identification and relative LC-MS quantitation of HLA-A*24-presented tumor-associated peptides on tissue samples (presentation profiles, Tables 14A, 14B, 16, FIG. 1); design: species or system human; key to Presentation score GC / Presentation score NSCLC / Presentation score PCA / Presentation score GB / Presentation score HCC / Presentation score RCC: specifically presented on tumors (++++); very highly over-presented on tumors compared to a panel of normal tissues (+++); highly over-presented on tumors compared to a panel of normal tissues (++); over-presented on tumors compared to a panel of normal tissues (+); conditions: for Presentation score GC: gastric cancer (N = 44) vs panel of normal tissues (N = 70); for Presentation score GB: glioblastoma (N = 18) vs panel of normal tissues (N = 70); for Presentation score NSCLC: non-small cell lung cancer (N = 91) vs panel of normal tissues (N = 70); for Presentation score HCC: hepatocellular carcinoma (N = 15) vs panel of normal tissues (N = 70)
[3] = HLA-A*24-binding peptides, additional cancer entities, GB = glioblastoma, HCC = hepatocellular carcinoma, NSCLC = non-small cell lung cancer, PCA = prostate cancer
[4] = Table 14A, HLA-A*24-binding tumor-associated peptides, cancer entities on which the peptide was found presented

Substance | Over-expression category of source gene (target coverage), LAML ([1]; same cutoff) | Peptide Presentation on cancer entities [2, 3] | Presentation score GC ([2]; HLA-A*24 peptides) | Presentation score GB ([2]; HLA-A*24 peptides) | Presentation score NSCLC ([2]; HLA-A*24 peptides) | Peptide Presentation on cancer entities [2, 4] | Over-expression category of source gene (target coverage), BLCA ([1]; same cutoff) | Over-expression category of source gene (target coverage), BRCA [1] | Over-expression category of source gene (target coverage), CHOL ([1]; same cutoff) | Over-expression category of source gene (target coverage), COAD ([1]; same cutoff) | Over-expression category of source gene (target coverage), ESCA ([1]; same cutoff) | Over-expression category of source gene (target coverage), KICH ([1]; same cutoff) | Over-expression category of source gene (target coverage), KIRC ([1]; same cutoff) | Over-expression category of source gene (target coverage), KIRP ([1]; same cutoff) | Over-expression category of source gene (target coverage), LGG ([1]; same cutoff) | Over-expression category of source gene (target coverage), LUAD ([1]; same cutoff) | Over-expression category of source gene (target coverage), LUSC ([1]; same cutoff) | Over-expression category of source gene (target coverage), OV ([1]; same cutoff) | Over-expression category of source gene (target coverage), PAAD ([1]; same cutoff) | Presentation score HCC ([2]; HLA-A*24 peptides) | further results
162: peptide found in CTSG (gene looked up) (VFTRVSSFL; listed as Homo sapiens) [compound 162] | A (>=50% of tumors above the cutoff) | HCC | ++++ | ++++ | ++++ | GB, GC, NSCLC |  |  |  |  |  |  |  |  |  |  |  |  |  |  | 
171: peptide found in SMG1 (gene looked up) (LFIPSSKLLFL; listed as Homo sapiens) [compound 171] | A (>=50% of tumors above the cutoff) |  |  |  | +++ | NSCLC, HCC, RCC | C (>=5% of tumors above the cutoff, but <20%) | B (>= 20% of tumors above the cutoff, but <50%) | C (>=5% of tumors above the cutoff, but <20%) | B (>= 20% of tumors above the cutoff, but <50%) | B (>= 20% of tumors above the cutoff, but <50%) | B (>= 20% of tumors above the cutoff, but <50%) | C (>=5% of tumors above the cutoff, but <20%) | C (>=5% of tumors above the cutoff, but <20%) | C (>=5% of tumors above the cutoff, but <20%) | C (>=5% of tumors above the cutoff, but <20%) | B (>= 20% of tumors above the cutoff, but <50%) | C (>=5% of tumors above the cutoff, but <20%) | C (>=5% of tumors above the cutoff, but <20%) | +++ | Over-expression category of source gene (target coverage), DLBC ([1]; DLBC = Lymphoid neoplasm diffuse large B-cell lymphoma (N = 48), same cutoff): B (>= 20% of tumors above the cutoff, but <50%); Over-expression category of source gene (target coverage), READ ([1]; same cutoff): A (>=50% of tumors above the cutoff); Over-expression category of source gene (target coverage), SKCM ([1]; same cutoff): B (>= 20% of tumors above the cutoff, but <50%); Over-expression category of source gene (target coverage), STAD ([1]; same cutoff): B (>= 20% of tumors above the cutoff, but <50%); Over-expression category of source gene (target coverage), UCEC ([1]; UCEC = Uterine corpus endometrial carcinoma (N = 546), same cutoff): A (>=50% of tumors above the cutoff); Presentation score RCC ([2]; HLA-A*24 peptides, renal cell carcinoma (N = 2) vs panel of normal tissues (N = 70)): +++
212: peptide found in FBXO3 (gene looked up) (YYTFHFLYF; listed as Homo sapiens) [compound 212] | C (>=5% of tumors above the cutoff, but <20%) | PCA | +++ |  | +++ | GC, NSCLC, HCC | C (>=5% of tumors above the cutoff, but <20%) | A (>=50% of tumors above the cutoff) | B (>= 20% of tumors above the cutoff, but <50%) | C (>=5% of tumors above the cutoff, but <20%) | B (>= 20% of tumors above the cutoff, but <50%) | B (>= 20% of tumors above the cutoff, but <50%) | A (>=50% of tumors above the cutoff) | B (>= 20% of tumors above the cutoff, but <50%) | B (>= 20% of tumors above the cutoff, but <50%) | C (>=5% of tumors above the cutoff, but <20%) | B (>= 20% of tumors above the cutoff, but <50%) | B (>= 20% of tumors above the cutoff, but <50%) | C (>=5% of tumors above the cutoff, but <20%) | +++ | Over-expression category of source gene (target coverage), GBM ([1]; GBM = Glioblastoma multiforme (N = 169), same cutoff): A (>=50% of tumors above the cutoff); Over-expression category of source gene (target coverage), PRAD ([1]; PRAD = Prostate adenocarcinoma (N = 498), same cutoff): B (>= 20% of tumors above the cutoff, but <50%); Over-expression category of source gene (target coverage), READ ([1]; same cutoff): B (>= 20% of tumors above the cutoff, but <50%); Over-expression category of source gene (target coverage), SKCM ([1]; same cutoff): C (>=5% of tumors above the cutoff, but <20%); Over-expression category of source gene (target coverage), STAD ([1]; same cutoff): B (>= 20% of tumors above the cutoff, but <50%)
228: peptide found in FGF2 (gene looked up) (KYTSWYVAL; listed as Homo sapiens) [compound 228] |  |  |  | ++ |  | GB, PCA |  |  |  |  |  |  |  |  |  |  |  |  |  |  | Target coverage: over-expression category of source gene, BRCA ([1]; Breast cancer (N = 1104), tumor expression more than 2-fold above highest 75% percentile of high and medium risk normal tissues): C (>=5% of tumors above the cutoff, but <20%); Target coverage: over-expression category of source gene, KIRC ([1]; Clear cell kidney carcinoma (N = 534), tumor expression more than 2-fold above highest 75% percentile of high and medium risk normal tissues): C (>=5% of tumors above the cutoff, but <20%); Target coverage: over-expression category of source gene, GBM ([1]; Glioblastoma multiforme (N = 169), tumor expression more than 2-fold above highest 75% percentile of high and medium risk normal tissues): B (>= 20% of tumors above the cutoff, but <50%); Target coverage: over-expression category of source gene, KICH ([1]; Kidney chromophobe (N = 66), tumor expression more than 2-fold above highest 75% percentile of high and medium risk normal tissues): C (>=5% of tumors above the cutoff, but <20%); Target coverage: over-expression category of source gene, LGG ([1]; Lower grade glioma (N = 534), tumor expression more than 2-fold above highest 75% percentile of high and medium risk normal tissues): A (>=50% of tumors above the cutoff); Target coverage: over-expression category of source gene, LUSC ([1]; Lung squamous cell carcinoma (N = 503), tumor expression more than 2-fold above highest 75% percentile of high and medium risk normal tissues): C (>=5% of tumors above the cutoff, but <20%); Target coverage: over-expression category of source gene, PAAD ([1]; Pancreatic ductal adenocarcinoma (N = 179), tumor expression more than 2-fold above highest 75% percentile of high and medium risk normal tissues): C (>=5% of tumors above the cutoff, but <20%); Target coverage: over-expression category of source gene, KIRP ([1]; Papillary kidney carcinoma (N = 291), tumor expression more than 2-fold above highest 75% percentile of high and medium risk normal tissues): C (>=5% of tumors above the cutoff, but <20%); Target coverage: over-expression category of source gene, SKCM ([1]; Skin cutaneous melanoma (N = 473), tumor expression more than 2-fold above highest 75% percentile of high and medium risk normal tissues): C (>=5% of tumors above the cutoff, but <20%); Target coverage: over-expression category of source gene, STAD ([1]; Stomach adenocarcinoma (N = 415), tumor expression more than 2-fold above highest 75% percentile of high and medium risk normal tissues): C (>=5% of tumors above the cutoff, but <20%); Presentation score PCA ([2]; HLA-A*24 peptides, prostate cancer (N = 40) vs panel of normal tissues (N = 70)): +
301: peptide found in AIFM2 (gene looked up) (AYKPGALTF; listed as Homo sapiens) [compound 301] |  |  |  |  | ++++ | NSCLC, HCC |  |  |  |  |  |  |  |  |  |  |  |  |  | ++++ | Target coverage: over-expression category of source gene, COAD ([1]; Colon and rectal adenocarcinoma (N = 462), tumor expression more than 2-fold above highest 75% percentile of high and medium risk normal tissues): C (>=5% of tumors above the cutoff, but <20%); Target coverage: over-expression category of source gene, LIHC ([1]; Liver hepatocellular carcinoma (N = 374), tumor expression more than 2-fold above highest 75% percentile of high and medium risk normal tissues): C (>=5% of tumors above the cutoff, but <20%); Target coverage: over-expression category of source gene, UCEC ([1]; Uterine corpus endometrial carcinoma (N = 546), tumor expression more than 2-fold above highest 75% percentile of high and medium risk normal tissues): C (>=5% of tumors above the cutoff, but <20%)
